Patent publication US20080050354A1, “PROTECTING BIOACTIVE FOOD INGREDIENTS USING MICROORGANISMS HAVING REDUCED METABOLIZING CAPACITY” (COMPAGNIE GERVAIS DANONE, priority 2004, published 2008)

Amino acid sequences for entries named in this document (tags omitted). A change or cut given only in a name is not applied to a line headed by its entry.
UniProt P02662: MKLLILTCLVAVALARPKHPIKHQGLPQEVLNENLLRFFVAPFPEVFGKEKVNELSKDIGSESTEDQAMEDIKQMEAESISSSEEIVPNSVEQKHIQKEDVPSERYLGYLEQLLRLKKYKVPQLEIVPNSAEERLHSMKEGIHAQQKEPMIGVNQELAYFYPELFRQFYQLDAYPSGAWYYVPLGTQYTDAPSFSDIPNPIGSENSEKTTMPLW

Test system: strain I-3211
Assay: Fermentation with variant strain I-3211 lacking the AMI peptide transport system
Parameters: species or system Streptococcus thermophilus

peptide αS1 [91-100]: fragment 91-100 of casein αS1; peptide with relaxing properties contained in the milk protein hydrolyzate Lactium® (Ingredia) (YLGYLEQLLR; UniProt P02662 106-115, looked up, fragment)
consumption of peptide by the variant: does not consume | level of survival of the peptide after fermentation (conditions identical to Table 4 (ingredient 1.5 g/L, stop at pH 4.7)): greater than 85%
